These are yes or no findings as the source states them, for the method shown. For some of these results: In cells and extracts the contact can be indirect. Some binding calls cover weakened binding; strength is not graded here.

Amino acid sequences for entries named in this document (tags omitted).
UniProt A8JR92: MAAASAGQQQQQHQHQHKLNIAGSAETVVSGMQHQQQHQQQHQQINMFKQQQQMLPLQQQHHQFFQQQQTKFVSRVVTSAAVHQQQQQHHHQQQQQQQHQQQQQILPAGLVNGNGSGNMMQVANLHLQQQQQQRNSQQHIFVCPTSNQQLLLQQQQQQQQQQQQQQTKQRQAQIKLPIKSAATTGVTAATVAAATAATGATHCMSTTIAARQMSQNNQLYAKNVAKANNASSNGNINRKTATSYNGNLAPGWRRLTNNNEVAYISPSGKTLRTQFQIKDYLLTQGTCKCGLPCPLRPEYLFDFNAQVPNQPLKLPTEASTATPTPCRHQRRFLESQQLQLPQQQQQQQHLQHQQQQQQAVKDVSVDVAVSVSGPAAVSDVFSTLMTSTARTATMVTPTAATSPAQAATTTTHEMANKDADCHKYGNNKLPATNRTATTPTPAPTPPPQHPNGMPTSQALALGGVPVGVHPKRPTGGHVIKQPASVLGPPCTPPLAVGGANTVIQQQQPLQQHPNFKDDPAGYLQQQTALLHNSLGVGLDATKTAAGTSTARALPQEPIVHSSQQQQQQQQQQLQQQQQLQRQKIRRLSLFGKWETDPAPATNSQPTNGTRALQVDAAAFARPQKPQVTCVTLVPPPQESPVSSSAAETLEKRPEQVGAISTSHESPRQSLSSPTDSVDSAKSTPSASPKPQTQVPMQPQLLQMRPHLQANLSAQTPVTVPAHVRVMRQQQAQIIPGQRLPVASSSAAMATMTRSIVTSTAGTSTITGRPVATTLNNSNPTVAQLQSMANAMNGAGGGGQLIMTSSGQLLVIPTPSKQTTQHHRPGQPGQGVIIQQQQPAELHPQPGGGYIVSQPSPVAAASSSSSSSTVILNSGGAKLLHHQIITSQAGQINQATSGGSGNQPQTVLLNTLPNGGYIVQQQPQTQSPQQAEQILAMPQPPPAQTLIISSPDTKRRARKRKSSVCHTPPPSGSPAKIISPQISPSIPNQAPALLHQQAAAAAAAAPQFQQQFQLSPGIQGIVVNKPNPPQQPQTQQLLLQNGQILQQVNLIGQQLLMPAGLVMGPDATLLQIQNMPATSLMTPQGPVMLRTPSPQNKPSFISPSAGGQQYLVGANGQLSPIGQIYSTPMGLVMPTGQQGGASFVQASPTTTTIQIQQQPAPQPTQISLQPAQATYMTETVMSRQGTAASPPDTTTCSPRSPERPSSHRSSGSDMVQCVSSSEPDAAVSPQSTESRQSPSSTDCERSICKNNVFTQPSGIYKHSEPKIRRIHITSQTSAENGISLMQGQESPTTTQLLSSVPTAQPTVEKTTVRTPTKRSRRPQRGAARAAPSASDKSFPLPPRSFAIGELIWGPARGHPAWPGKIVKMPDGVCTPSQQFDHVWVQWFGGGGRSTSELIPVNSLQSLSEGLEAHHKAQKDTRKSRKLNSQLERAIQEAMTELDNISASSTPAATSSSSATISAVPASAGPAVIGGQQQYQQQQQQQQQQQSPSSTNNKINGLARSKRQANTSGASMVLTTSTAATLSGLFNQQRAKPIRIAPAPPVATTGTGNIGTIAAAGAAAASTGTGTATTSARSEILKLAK
UniProt Q8IXJ9: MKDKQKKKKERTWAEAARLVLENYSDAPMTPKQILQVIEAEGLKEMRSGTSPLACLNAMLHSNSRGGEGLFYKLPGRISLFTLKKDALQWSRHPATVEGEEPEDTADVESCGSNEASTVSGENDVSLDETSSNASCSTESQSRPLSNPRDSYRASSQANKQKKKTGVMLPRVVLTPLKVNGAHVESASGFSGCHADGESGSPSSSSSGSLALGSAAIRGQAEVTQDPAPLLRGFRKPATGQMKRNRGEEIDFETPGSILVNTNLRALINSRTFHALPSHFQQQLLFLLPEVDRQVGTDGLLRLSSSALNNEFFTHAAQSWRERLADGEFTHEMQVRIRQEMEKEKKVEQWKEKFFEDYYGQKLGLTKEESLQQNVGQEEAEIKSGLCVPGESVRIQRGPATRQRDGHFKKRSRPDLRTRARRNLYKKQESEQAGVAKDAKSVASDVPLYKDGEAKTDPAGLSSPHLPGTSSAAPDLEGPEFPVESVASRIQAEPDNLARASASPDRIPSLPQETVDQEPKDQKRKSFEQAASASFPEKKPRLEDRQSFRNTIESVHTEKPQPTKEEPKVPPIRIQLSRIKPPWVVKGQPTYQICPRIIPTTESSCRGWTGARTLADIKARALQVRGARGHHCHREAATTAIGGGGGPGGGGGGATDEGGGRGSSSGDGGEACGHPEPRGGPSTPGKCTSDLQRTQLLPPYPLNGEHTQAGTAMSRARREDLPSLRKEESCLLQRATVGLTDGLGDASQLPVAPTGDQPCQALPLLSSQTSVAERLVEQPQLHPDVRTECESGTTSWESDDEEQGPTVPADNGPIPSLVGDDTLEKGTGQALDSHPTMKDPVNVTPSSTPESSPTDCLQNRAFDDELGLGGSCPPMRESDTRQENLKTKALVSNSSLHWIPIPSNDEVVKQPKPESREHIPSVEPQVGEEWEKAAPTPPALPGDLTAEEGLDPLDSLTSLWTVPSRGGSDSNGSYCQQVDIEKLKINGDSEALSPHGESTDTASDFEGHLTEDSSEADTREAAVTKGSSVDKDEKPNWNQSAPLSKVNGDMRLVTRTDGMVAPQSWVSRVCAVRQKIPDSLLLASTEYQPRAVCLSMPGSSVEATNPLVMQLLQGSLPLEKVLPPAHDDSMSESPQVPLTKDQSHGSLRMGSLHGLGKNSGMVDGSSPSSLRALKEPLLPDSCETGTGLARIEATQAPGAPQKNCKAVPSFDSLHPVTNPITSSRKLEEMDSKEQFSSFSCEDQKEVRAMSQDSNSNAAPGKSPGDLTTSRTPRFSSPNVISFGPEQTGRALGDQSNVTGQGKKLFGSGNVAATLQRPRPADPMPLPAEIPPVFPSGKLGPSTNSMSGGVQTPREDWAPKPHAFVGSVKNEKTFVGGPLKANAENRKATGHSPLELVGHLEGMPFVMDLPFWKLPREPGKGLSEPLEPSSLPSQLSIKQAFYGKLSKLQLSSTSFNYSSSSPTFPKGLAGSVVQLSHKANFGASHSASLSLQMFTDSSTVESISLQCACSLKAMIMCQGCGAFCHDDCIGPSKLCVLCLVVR
UniProt Q76L83: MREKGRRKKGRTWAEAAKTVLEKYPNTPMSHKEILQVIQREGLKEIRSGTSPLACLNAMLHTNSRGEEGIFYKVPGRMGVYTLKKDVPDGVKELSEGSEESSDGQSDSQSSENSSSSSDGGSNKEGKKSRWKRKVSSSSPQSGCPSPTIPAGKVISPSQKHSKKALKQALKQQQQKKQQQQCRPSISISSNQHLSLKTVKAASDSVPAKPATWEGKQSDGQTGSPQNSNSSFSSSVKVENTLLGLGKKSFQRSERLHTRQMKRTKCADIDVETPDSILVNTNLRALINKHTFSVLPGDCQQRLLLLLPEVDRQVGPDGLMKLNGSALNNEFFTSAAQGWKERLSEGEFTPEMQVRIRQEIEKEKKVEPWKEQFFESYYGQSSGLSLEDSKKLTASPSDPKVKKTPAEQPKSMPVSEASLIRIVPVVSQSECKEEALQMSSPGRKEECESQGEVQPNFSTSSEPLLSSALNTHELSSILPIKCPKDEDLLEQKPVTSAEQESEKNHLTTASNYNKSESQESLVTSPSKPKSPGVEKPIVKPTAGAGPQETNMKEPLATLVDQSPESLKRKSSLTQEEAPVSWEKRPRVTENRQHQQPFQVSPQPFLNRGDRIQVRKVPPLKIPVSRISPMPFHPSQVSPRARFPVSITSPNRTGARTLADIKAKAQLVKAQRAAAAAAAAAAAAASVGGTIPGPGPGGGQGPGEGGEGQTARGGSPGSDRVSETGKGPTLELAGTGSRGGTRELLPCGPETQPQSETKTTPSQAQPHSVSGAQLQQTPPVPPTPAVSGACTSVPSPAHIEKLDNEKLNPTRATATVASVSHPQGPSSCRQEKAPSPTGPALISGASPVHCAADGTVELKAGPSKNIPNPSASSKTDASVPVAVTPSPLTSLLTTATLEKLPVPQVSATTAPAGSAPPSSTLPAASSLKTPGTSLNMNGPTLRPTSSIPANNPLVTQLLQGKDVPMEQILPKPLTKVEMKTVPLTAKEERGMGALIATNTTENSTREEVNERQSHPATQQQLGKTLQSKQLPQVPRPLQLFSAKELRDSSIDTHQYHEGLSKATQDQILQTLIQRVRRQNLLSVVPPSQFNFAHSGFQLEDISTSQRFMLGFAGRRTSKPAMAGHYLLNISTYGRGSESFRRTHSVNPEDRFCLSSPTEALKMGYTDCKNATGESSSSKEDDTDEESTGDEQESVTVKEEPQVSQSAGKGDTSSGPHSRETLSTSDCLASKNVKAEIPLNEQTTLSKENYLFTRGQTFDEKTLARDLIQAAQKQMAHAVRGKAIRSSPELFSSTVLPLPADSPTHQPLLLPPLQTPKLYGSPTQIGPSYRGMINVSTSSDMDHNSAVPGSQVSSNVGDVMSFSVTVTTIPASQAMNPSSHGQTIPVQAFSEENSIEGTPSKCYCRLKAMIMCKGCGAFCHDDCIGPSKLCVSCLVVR
UniProt Q9V727: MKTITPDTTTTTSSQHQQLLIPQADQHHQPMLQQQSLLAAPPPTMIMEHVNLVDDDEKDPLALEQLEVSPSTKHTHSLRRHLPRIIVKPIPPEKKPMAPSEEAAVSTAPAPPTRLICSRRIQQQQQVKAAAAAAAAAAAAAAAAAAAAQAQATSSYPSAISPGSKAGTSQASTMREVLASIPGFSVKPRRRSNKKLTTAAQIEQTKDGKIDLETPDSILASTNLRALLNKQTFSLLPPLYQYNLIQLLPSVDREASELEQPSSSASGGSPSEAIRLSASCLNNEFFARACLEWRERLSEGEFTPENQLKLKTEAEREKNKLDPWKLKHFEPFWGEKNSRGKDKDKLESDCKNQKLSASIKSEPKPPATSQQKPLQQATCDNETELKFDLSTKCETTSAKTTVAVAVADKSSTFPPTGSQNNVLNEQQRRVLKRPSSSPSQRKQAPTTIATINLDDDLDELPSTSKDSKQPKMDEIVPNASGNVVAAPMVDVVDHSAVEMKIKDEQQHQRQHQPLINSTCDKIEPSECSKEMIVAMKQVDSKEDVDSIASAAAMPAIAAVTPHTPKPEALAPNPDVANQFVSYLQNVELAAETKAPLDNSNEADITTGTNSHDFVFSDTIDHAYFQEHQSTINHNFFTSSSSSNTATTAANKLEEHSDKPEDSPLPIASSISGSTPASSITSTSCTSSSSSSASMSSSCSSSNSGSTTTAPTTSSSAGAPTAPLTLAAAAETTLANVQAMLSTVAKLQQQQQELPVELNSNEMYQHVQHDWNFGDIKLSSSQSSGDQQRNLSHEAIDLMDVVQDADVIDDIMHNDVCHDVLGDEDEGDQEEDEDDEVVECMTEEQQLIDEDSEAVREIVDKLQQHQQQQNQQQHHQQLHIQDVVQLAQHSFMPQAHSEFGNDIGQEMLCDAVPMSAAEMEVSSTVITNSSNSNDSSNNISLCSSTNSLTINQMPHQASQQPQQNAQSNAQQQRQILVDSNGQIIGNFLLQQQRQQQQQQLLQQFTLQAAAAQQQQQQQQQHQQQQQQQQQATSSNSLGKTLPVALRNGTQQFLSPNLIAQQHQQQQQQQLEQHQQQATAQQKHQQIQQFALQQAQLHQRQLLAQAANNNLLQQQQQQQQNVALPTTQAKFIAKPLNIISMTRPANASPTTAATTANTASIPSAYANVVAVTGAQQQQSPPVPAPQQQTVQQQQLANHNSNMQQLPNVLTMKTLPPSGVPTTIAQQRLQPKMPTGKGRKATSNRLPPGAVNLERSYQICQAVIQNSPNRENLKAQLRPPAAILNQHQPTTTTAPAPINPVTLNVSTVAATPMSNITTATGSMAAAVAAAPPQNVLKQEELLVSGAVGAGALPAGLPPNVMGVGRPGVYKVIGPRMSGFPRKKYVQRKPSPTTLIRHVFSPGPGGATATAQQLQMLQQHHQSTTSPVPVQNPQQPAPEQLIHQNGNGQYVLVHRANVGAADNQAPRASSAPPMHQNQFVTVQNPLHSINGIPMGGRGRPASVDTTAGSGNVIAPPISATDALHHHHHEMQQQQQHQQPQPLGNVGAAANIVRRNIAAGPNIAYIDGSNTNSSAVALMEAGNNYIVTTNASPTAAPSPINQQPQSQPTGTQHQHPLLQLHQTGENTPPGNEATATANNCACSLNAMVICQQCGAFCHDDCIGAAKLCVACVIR

Here are results for four substances from paper PMC9523997.

The target of assay [1] is T1, Calypso, endogenous in Drosophila S2 cells (Drosophila (endogenous in S2)) (UniProt Q7K5N4).
T1 sequence: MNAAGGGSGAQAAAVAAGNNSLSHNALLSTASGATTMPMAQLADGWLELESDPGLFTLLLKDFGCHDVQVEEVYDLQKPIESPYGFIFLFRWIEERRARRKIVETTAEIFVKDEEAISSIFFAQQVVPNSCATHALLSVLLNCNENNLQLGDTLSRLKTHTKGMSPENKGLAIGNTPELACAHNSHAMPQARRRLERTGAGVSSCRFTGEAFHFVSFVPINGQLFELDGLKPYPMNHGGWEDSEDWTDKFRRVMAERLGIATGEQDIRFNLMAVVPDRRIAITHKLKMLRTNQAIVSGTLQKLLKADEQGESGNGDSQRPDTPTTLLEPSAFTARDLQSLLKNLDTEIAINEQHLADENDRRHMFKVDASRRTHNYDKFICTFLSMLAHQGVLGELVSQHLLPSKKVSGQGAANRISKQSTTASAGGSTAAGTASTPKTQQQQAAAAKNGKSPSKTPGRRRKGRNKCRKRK
In words: co-IP; Drosophila S2 cells; IP with antibodies against Calypso, SBA or ASX, immunoblot for ASX and SBA. (In general: Immunoblotting shows a protein as a band on a membrane.)

The target in assay [2] is T1, Calypso, endogenous in Drosophila S2 cells (Drosophila (endogenous in S2)). In words: SEC; size exclusion experiment with Drosophila cells (Fig. S3L, legend not shown), western blot.
In assay [3] the target is T2, methyl-CpG-binding domain protein 5 (MBD5), endogenous (human (endogenous in HEK293T)) (UniProt Q9P267).
T2 sequence: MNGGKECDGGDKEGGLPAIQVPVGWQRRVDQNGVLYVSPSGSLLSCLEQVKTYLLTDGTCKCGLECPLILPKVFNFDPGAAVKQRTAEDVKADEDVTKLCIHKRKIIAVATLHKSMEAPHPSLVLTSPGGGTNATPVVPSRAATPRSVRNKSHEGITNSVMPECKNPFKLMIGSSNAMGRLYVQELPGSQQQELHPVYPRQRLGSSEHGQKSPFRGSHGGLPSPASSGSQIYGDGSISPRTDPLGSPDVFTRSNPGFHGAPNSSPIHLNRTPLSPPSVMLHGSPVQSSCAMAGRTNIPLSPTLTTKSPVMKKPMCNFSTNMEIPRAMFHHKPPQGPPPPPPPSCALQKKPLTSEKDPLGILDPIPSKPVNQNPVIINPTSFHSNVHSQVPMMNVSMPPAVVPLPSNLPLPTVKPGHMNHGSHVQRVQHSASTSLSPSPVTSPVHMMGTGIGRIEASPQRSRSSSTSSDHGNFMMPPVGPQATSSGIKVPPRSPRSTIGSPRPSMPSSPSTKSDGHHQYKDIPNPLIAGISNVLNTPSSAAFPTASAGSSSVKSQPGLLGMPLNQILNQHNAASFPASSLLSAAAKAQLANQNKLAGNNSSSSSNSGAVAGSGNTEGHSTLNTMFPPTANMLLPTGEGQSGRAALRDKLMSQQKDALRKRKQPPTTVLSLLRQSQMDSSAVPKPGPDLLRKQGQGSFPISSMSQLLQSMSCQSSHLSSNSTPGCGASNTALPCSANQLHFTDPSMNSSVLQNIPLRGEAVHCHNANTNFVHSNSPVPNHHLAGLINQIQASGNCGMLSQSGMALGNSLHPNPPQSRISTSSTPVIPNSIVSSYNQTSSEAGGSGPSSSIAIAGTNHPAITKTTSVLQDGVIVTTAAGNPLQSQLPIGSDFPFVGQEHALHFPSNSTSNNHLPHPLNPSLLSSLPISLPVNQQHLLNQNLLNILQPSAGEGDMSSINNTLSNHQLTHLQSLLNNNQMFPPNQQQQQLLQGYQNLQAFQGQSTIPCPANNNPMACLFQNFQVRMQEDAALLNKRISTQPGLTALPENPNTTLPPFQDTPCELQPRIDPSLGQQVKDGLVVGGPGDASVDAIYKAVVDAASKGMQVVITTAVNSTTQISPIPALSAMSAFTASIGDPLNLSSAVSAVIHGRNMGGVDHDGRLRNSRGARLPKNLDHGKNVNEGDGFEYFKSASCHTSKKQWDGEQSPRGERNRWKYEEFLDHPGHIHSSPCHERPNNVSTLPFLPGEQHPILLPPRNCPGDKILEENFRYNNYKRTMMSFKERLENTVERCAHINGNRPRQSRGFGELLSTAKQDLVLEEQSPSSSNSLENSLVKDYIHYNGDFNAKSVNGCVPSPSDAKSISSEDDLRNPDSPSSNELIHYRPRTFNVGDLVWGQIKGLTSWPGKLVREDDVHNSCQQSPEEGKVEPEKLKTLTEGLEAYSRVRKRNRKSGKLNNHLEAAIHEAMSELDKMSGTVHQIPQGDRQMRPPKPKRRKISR
As to the kind of experiment: co-IP; endogenous proteins precipitated with antibody and Protein A/G at 4°C overnight from lysates (50 mM Tris pH 8.0, 150 mM NaCl, 0.5% Triton X100, 10% glycerol, benzonase), immunoblot; HEK293T wild type and BAP1 knockout; cells with the PHD finger of ASXL1 or ASXL2 deleted.

For assay [4], the target named is T3, methyl-CpG-binding domain protein 6 (MBD6), endogenous (human (endogenous in HEK293T and SCLC cell lines)) (UniProt Q96DN6).
T3 sequence: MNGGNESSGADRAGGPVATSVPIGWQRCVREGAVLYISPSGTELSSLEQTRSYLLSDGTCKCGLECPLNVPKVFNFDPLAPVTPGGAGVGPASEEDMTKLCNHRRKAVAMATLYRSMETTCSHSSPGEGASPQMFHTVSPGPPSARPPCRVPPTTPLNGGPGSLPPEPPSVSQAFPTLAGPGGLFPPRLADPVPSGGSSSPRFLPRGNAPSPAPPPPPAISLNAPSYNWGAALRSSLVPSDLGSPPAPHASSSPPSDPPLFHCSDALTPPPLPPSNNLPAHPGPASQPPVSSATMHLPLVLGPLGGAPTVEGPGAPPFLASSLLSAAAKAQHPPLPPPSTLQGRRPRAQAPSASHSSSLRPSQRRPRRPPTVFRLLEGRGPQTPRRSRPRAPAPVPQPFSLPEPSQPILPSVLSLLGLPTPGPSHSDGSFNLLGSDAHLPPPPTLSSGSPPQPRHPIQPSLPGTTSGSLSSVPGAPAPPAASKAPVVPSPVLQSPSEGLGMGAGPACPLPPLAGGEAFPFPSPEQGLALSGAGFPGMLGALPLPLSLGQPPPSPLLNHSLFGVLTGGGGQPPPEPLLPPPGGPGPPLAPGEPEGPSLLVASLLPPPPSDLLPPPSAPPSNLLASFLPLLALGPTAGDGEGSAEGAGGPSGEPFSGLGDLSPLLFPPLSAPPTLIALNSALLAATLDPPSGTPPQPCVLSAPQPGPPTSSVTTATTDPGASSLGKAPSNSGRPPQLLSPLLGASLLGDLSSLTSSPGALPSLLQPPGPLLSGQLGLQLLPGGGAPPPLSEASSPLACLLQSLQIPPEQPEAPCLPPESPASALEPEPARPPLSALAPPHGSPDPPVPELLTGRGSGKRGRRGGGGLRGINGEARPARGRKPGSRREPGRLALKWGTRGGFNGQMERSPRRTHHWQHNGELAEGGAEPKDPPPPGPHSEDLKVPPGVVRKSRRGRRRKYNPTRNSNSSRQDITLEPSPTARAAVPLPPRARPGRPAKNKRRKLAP
The assay is described as above.

In assay [5] the target is Six-banded (SBA), endogenous in Drosophila S2 cells (Drosophila (endogenous in S2)) (UniProt A8JR92). In words: co-IP; Drosophila S2 cells; IP with antibodies against Calypso, SBA or ASX, immunoblot for ASX and SBA.
Assay [6] shares this target. In words: SEC; size exclusion experiment with Drosophila cells (Fig. S3L, legend not shown), western blot. (SEC sorts molecules by how far they enter the pores of the column.)

On to “Six-banded (SBA), endogenous in Drosophila S2 cells (from UniProt A8JR92 1-1583)”, for which the binding result in assay [1] and in assay [2] was “binds” throughout.
As to “additional sex comb-like protein 1 (ASXL1), endogenous (from UniProt Q8IXJ9 1-1541)”, the binding result in assay [3] was “binds”.
Consider “additional sex comb-like protein 2 (ASXL2), endogenous (from UniProt Q76L83 1-1435)”, for which the binding result in assay [3] and in assay [4] was “binds” in each case.
In the case of “additional sex combs (ASX), endogenous in Drosophila S2 cells (from UniProt Q9V727 1-1669)”, the binding result in assay [5] and in assay [6] was “binds” in each case.
